One substance from paper PMC8016319 can be followed below.

Chains of the proteins cited; added tags and fusions are not shown.
UniProt Q3TKT4: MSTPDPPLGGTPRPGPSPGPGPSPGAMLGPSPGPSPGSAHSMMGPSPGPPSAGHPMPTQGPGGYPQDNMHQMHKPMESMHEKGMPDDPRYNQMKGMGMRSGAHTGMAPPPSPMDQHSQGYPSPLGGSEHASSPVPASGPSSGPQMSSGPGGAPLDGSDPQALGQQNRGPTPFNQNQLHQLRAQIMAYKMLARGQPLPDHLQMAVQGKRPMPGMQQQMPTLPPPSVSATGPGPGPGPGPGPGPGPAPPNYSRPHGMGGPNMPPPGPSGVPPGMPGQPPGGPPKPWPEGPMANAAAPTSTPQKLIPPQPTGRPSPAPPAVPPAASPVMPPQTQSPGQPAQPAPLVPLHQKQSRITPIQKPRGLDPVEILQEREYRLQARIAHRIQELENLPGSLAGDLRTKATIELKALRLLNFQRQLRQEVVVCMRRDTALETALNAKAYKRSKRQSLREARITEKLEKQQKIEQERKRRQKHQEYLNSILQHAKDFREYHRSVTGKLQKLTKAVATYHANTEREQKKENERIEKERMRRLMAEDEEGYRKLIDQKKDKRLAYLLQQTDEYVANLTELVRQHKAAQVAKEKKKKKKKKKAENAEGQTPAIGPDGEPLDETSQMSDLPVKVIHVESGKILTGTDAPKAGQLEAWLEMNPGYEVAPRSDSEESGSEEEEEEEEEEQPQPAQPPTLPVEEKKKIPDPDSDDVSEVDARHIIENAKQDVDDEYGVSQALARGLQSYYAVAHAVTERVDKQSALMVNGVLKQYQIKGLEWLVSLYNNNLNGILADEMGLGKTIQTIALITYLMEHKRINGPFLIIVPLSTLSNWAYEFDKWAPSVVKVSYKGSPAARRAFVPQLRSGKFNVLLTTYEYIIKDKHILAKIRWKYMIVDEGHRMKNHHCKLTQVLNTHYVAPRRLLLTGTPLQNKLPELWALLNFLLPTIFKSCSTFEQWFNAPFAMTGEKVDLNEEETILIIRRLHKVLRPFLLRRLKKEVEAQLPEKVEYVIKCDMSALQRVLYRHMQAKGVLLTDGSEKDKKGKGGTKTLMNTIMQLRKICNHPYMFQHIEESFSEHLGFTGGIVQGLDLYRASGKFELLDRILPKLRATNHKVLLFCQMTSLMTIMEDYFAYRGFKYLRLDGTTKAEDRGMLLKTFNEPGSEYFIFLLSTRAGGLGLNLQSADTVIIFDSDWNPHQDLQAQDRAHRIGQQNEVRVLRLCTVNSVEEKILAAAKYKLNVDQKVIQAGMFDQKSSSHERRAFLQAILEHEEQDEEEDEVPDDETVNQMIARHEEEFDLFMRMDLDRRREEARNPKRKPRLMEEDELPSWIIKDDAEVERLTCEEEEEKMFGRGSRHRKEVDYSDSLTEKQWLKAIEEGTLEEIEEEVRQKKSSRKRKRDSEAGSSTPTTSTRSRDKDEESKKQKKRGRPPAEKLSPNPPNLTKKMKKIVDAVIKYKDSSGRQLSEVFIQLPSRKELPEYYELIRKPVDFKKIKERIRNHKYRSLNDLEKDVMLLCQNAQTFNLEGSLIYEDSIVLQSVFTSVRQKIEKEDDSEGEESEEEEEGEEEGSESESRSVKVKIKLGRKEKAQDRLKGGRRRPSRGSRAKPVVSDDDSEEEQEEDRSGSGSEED
UniProt P46938: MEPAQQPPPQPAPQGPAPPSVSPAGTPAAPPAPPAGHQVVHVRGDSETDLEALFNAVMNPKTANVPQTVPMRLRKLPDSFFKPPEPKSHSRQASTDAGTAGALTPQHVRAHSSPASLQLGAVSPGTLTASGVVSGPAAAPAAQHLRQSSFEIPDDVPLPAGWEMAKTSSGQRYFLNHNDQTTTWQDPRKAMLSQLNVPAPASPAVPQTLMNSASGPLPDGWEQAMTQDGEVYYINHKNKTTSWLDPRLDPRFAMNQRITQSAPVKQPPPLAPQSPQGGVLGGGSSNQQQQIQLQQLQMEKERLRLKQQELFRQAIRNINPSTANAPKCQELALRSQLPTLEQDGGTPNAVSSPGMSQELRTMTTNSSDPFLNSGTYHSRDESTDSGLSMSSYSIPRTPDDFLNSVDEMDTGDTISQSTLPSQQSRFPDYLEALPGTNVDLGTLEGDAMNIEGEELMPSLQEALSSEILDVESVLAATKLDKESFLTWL

In this assay the target is Brg1 (mouse (endogenous in O9-1)) (UniProt Q3TKT4). As to the kind of experiment: co-IP; extracts (RIPA buffer) of O9-1 cells transfected with control siRNA (for Brg1-Yap also BAF155 or BAF155/170 siRNA, 72 h); IP with anti-pan Tead or anti-Brg1 antibody at 4°C overnight, protein A-agarose beads, IgG control; western blot for Brg1 or Yap. (In general: A western blot detects proteins with antibodies after separation by electrophoresis.)

No constants are given. Whether binding was seen depends on the method and setting. Binding seen in cells or lysates may run through a third protein. Some binding calls cover weakened binding; strength is not graded here.

Turning to Yap (from UniProt P46938 1-488), the binding result was “binds”.
